## Library screening results

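Whole-cell assay for inhibitors of Mycobacterium tuberculosis growth, labelled Cornell in the record; the read-out is not stated. The concentration is filed as 10 mM, unlikely as a test dose, so the dose is not known. Higher means stronger inhibition (inferred from two other growth screens of the library). Size under these conditions: about 53,000 compounds, about 900 of them at 50% or above in at least one test.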

Results are given as percent effect.
The record does not define 0% and 100%; most values in the screen are far below 50% and negative numbers occur (in some assays of this library far below -100).
The compounds are a random part of those screened.

With CC(Cn1cccn1)NCc1csc(-c2ccsc2)n1 (centres undefined) the screen gave 13.88%.
With Cc1cc(NCC(=O)N(C)Cc2cccs2)c(C(N)=O)cc1F the screen gave -20.46%.
With CC(CN1CCOCC1)OC(=O)c1ccccc1Cl.Cl (centres undefined) the screen gave 15.65%.
With O=C(O)C(F)(F)F.[H][C@@]12COC[C@@H](CC(=O)N3CCOCC3)[C@]1([H])CN(C(=O)c1cccnc1)C2 the screen gave -3.314%.
With CCOC(=O)N1CCC2(CCCN(C3CCOCC3)C2=O)C1 (centres undefined) the screen gave 3.277%.
With CC(C)(O)CCc1ccc(C(=O)NCCC2CCOC2)cc1 (centres undefined) the screen gave 1.858%.
With CC(C)CN1CCCn2nc(CNC(=O)c3cccnc3O)cc2C1 the screen gave -6.985%.
With CN(Cc1ccccc1Cl)C(C(=O)O)c1ccc(F)c(CO)c1 (centres undefined) the screen gave 20.77%.
With Cc1cccc(N(CCC(N)=O)C(=O)c2cc(-n3cccn3)ccn2)c1 the screen gave -31.13%.
With CSC(C)(C)CNC(=O)NCc1cccc(-n2ccnc2)c1 the screen gave 17.71%.
With Cc1ccccc1NC(=O)CCNC(=O)c1ccoc1 the screen gave -40.22%.
With COc1ccc(-c2nc(CNCCn3cccn3)cs2)cc1 the screen gave 49.39%.
With CCc1ccc(C(=O)Nc2ccc(CC3CC(=O)NC3=O)cc2)s1 (centres undefined) the screen gave 17.17%.
With NC(=O)CN(Cc1ccc(Br)cc1)C(=O)c1cccnc1 the screen gave -23.49%.
With Cn1cc(CCNC(=O)NCc2nnc3n2CCC3)cn1 the screen gave 3.788%.
With c1ccc(CN2CCC3(CC2)Nc2ccccc2CO3)cc1 the screen gave -2.692%.
With Cc1c(Cl)c(C(=O)N2CC[C@H](N3CCOCC3)[C@H](CCCO)C2)nn1C the screen gave 10.25%.
With Cc1cc(-c2cnc(N3CCC(O)CC3)nc2-c2cccnc2C)on1 the screen gave -33.62%.
With Cc1n[nH]c(C)c1CCC(=O)NC1CCCN(c2ccccc2F)C1 (centres undefined) the screen gave -26.74%.
With COc1ccccc1CN(Cc1nc(C)no1)C1CC1 the screen gave -19.99%.
With [H][C@]12C[C@@H](CN(C)C)N(C)[C@@]1([H])CCN(C(=O)Cc1cccs1)C2 the screen gave -13.85%.
With CN(C)C(=O)N1CCN(Cc2cnn(C)c2)CC2(CNC(=O)C2)C1.O=C(O)C(F)(F)F (centres undefined) the screen gave 12.35%.
With N#Cc1ccnc(NCc2cc3n(n2)CCCN(C(=O)C2CCC2)C3)c1 the screen gave 12.22%.
With CC(=O)N1CCCC1C(=O)NCCOc1cc(C)cc(C)c1 (centres undefined) the screen gave -9.208%.
With COC(=O)CCCn1ccnc1-c1ccc(OC)c(F)c1F the screen gave -14.36%.
With O=C(NCc1nc(C2CC2)no1)N1CCOC(c2ccccc2F)C1 (centres undefined) the screen gave 25.46%.
With [H][C@@]12COC[C@]1([H])[C@@H](OCC1CC1)CN2C(=O)c1ccc2c(c1)OCO2 the screen gave 22.46%.
With CN(Cc1ncc[nH]1)c1nc(-c2ccccn2)nc2c1CCNCC2 the screen gave 56.27%.
With COc1ccc(CN2C[C@@H](CN(C)C)[C@@H](CO)C2)cc1CN1CCCC1 the screen gave -3.289%.
With CC(NC(=O)c1cccc(CN2CCN(C)CC2)c1)c1ccccn1 (centres undefined) the screen gave 4.092%.
With O=C(c1ccc(-n2cnnc2)nc1)N1CCCC(O)(CO)CC1 (centres undefined) the screen gave -4.111%.
With O=C(Cc1ccc(Cl)cc1)N1CCC(O)(C(F)(F)F)C1 (centres undefined) the screen gave -13.79%.
With CCC(C)N(Cc1ccncc1)Cc1ccccc1Cn1cccn1 (centres undefined) the screen gave 34.7%.
With CC(C)c1cncnc1-c1cc(F)cc2c1OC(CN)C2 (centres undefined) the screen gave -1.464%.

Once more, the final 3:

* O=C(Cc1ccc(Cl)cc1)N1CCC(O)(C(F)(F)F)C1 (centres undefined) : -13.79%
* CCC(C)N(Cc1ccncc1)Cc1ccccc1Cn1cccn1 (centres undefined) : 34.7%
* CC(C)c1cncnc1-c1cc(F)cc2c1OC(CN)C2 (centres undefined) : -1.464%

Data taken from ChEMBL document CHEMBL3988442, “University of Dundee, Small-Polar-MMV Screening Library” (2021).